Measurements published in US6756373B1, “Pharmaceutically active compounds” (Pfizer Inc., priority 1999, dated 2004).
Some entries share one result that the patent states for a list of compounds.

Molecular target: cGMP PDE5 (UniProt O76074)
Experiment: Phosphodiesterase (PDE) inhibitory activity: in vitro inhibition of cGMP PDE5 (batch method or scintillation proximity assay)
Details: read-out: IC50 values for the PDE5 enzyme, stated in text as 'less than about'

Row | Structure (SMILES) | IC50
1 | CCCCOc1ncc(C(C)=O)cc1-c1nc2c(CC)n(CCN(C)C)nc2c(=O)[nH]1 [Example 47, 5-(5-Acetyl-2-butoxy-3-pridinyl)-2-[2-(dimethylamino)ethyl]-3-ethyl-2,6-dihydro-7H-pyrazolo[4,3-d]pyrimidin-7-one] | < 10 nM
2 | CCOc1ncc(C(C)=O)cc1-c1nc2c(CC)n(CC3CC3)nc2c(=O)[nH]1 [Example 128] | < 10 nM
3 | CCCOc1ncc(N)cc1-c1nc2c(CCC)nn(C)c2c(=O)[nH]1 [Example 74, 5-(5-Amino-2-Propoxy-3-pyridinyl)-1-methyl-3-propyl-1,6-dihydro-7H-pyrazolo[4,3-d]pyrimidin-7-one] | < 10 nM
4 | CCCOc1ncc(N[C@@H](C)C(=O)O)cc1-c1nc2c(CCC)nn(C)c2c(=O)[nH]1 [Example 84, N-[5-(1-Methyl-7-oxo-3-propyl-6,7-dihydro-1H-pyrazolo[4,3-d]pyrimidin-5-yl)-6-propoxy-3-pyridinyl]alanine] | < 10 nM
5 | CCCc1c2nc(-c3cc(C(=O)CN4CCN(CC)CC4)cnc3OCC(C)C)[nH]c(=O)c2nn1C [Example 32, 5-{5-[2-(4-Ethyl-1-piperazinyl)acetyl]-2-isobutoxy-3-pyridinyl}-2-methyl-3-propyl-2,6-dihydro-7H-pyrazolo[4,3-d]pyrimidin-7-one] | < 10 nM
6 | CCc1c2nc(-c3cc(C(C)=O)cnc3OC(C)COC)[nH]c(=O)c2nn1CCOC (stereo not drawn) [Example 17, 5-[5-Acetyl-2-(2-methoxy-1-methylethoxy)-3-pyridinyl]-3-ethyl-2-(2-methoxyethyl)-2,6-dihydro-7H-pyrazolo[4,3-d]pyrimidin-7-one] | < 10 nM
7 | CCCc1c2nc(-c3cc(C(=O)O)cnc3OCC(C)C)[nH]c(=O)c2nn1C [Example 24, 6-Isobutoxy-5-(2-methyl-7-oxo-3-propyl-6,7-dihydro-2H-pyrazolo[4,3-d]-pyrimidin-5-yl)nicotinic Acid] | < 10 nM
8 | CCCOc1ncc(C(C)=O)cc1-c1nc2c(CC)n(C3CN(C(C)CC)C3)nc2c(=O)[nH]1 (stereo not drawn) [Example 123, 5-(5-Acetyl-2-propoxy-3-pyridinyl)-2-(1-sec-butyl-3-azetidinyl)-3-ethyl-2,6-dihydro-7H-pyrazolo[4,3-d]pyrimidin-7-one] | < 5 nM
9 | CCCCOc1ncc(C(C)=O)cc1-c1nc2c(CC)nn(CCN3CCOCC3)c2c(=O)[nH]1 [Example 114, 5-(5-Acetyl-2-butoxy-3-pyridinyl)-3-ethyl-1-[2-(4-morpholinyl)ethyl]-1,6-dihydro-7H-pyrazolo[4,3-d]pyrimidin-7-one] | < 5 nM

The remaining lines, values ahead:

Row | IC50 | Structure (SMILES)
10 | < 5 nM | CCCOc1ncc(NC(=O)CC(=O)OC)cc1-c1nc2c(CCC)nn(C)c2c(=O)[nH]1 [Example 78, Methyl 3-{[5-(1-methyl-7-oxo-3-propyl-6,7-dihydro-1H-pyrazolo[4,3-d]-pyrimidin-5-yl)-6-propoxy-3-pyridinyl]amino}-3-oxopropanoate]
11 | < 5 nM | CCCOc1ncc(I)cc1-c1nc2c(CC)[nH]nc2c(=O)[nH]1 [Example 63]
12 | < 5 nM | CCCOc1ncc(C#N)cc1-c1nc2c(CCC)nn(C)c2c(=O)[nH]1 [Example 70, 5-(1-Methyl-7-oxo-3-propyl-6,7-dihydro-1-pyrazolo[4,3-d]pyrimidin-5-yl)-6-propoxynicotinonitrile]
13 | < 5 nM | CCCOc1ncc(-c2nnn[nH]2)cc1-c1nc2c(CCC)nn(C)c2c(=O)[nH]1 [Example 71, 1-Methyl-5-[2-propoxy-5-(1H-tetrazol-5-yl)-3-pyridinyl]-3-propyl-1,6-dihydro-7H-pyrazolo[4,3-d]pyrimidin-7-one]
14 | < 5 nM | CCCOC(=O)Nc1cnc(OCCC)c(-c2nc3c(CCC)nn(C)c3c(=O)[nH]2)c1 [Example 94, Propyl 5-(1-Methyl-7-oxo-3-propyl-6,7-dihydro-1H-pyrazolo[4,3-d]pyrimidin-5-yl)-6-propoxy-3-pyridinylcarbamate]
15 | < 5 nM | CCCc1nn(C)c2c(=O)[nH]c(-c3cc(NC(C)=O)cnc3OC3CCC3)nc12 [Example 89, N-[6-(Cyclobutyloxy)-5-(1-methyl-7-oxo-3-propyl-6,7-dihydro-1H-pyrazolo[4,3-d]pyrimidin-5-yl)-3-pyridinyl]acetamide]
